Data as given in paper PMC4619598.
Results are given in words; binding and its absence hold for the method and conditions named. In cells and extracts the contact can be indirect. For some assays here: Binding calls can cover weak binding; strength is not graded here. Tags and fused reporters may be left off the sequences shown.

Experiments:
[1] = biological target: ROS1CTD fused with split luciferase (Arabidopsis thaliana); assay: split reporter; split luciferase in Nicotiana benthamiana (tobacco) leaves, 3 day-post-infiltration; empty vectors as negative control; CCD camera
[2] = biological target: ROS1NTD fused with split luciferase (Arabidopsis thaliana); assay: as above

binding [1]: binds
binding [2]: no binding
B1: MET18 fused with split luciferase (protein, UniProt Q0WVF8 1-1134)
chain: MMVEPNQLVQHLETFVDTNRSSSQQDDSLKAIASSLENDSLSITQLVREMEMYLTTTDNLVRARGILLLAEILDCLKAKPLNDTIVHTLVGFFSEKLADWRAMCGALVGCLALLKRKDVAGVVTDIDVQAMAKSMIQNVQVQALALHERKLAFELLECLLQQHSEAILTMGDLLVYAMCEAIDGEKDPQCLMIVFHLVELLAPLFPSPSGPLASDASDLFEVIGCYFPLHFTHTKDDEANIRREDLSRGLLLAISSTPFFEPYAIPLLLEKLSSSLPVAKVDSLKCLKDCALKYGVDRMKKHYGALWSALKDTFYSSTGTHLSFAIESLTSPGFEMNEIHRDAVSLLQRLVKQDISFLGFVVDDTRINTVFDTIYRYPQYKEMPDPSKLEVLVISQILSVSAKASVQSCNIIFEAIFFRLMNTLGIVEKTSTGDVVQNGNSTVSTRLYHGGLHLCIELLAASKDLILGFEECSPTSGCANSGCSMVKSFSVPLIQVFTSAVCRSNDDSVVDVYLGVKGLLTMGMFRGGSSPVSRTEFENILVTLTSIITAKSGKTVVWELALKALVCIGSFIDRYHESDKAMSYMSIVVDNLVSLACSSHCGLPYQMILEATSEVCSTGPKYVEKMVQGLEEAFCSSLSDFYVNGNFESIDNCSQLLKCLTNKLLPRVAEIDGLEQLLVHFAISMWKQIEFCGVFSCDFNGREFVEAAMTTMRQVVGIALVDSQNSIIQKAYSVVSSCTLPAMESIPLTFVALEGLQRDLSSRDELILSLFASVIIAASPSASIPDAKSLIHLLLVTLLKGYIPAAQALGSMVNKLGSGSGGTNTSRDCSLEEACAIIFHADFASGKKISSNGSAKIIVGSETTMSKICLGYCGSLDLQTRAITGLAWIGKGLLMRGNERVNEIALVLVECLKSNNCSGHALHPSAMKHAADAFSIIMSDSEVCLNRKFHAVIRPLYKQRCFSTIVPILESLIMNSQTSLSRTMLHVALAHVISNVPVTVILDNTKKLQPLILEGLSVLSLDSVEKETLFSLLLVLSGTLTDTKGQQSASDNAHIIIECLIKLTSYPHLMVVRETSIQCLVALLELPHRRIYPFRREVLQAIEKSLDDPKRKVREEAIRCRQAWASITSGSNIF
